This is one part of the list. These are further read-outs of the screen, such as a control signal, another cell line or another target. No call is given for them. Most of these compounds were active or inconclusive in the main read-out, so they are no random draw. Potencies come from curve fits of mixed quality, noted in brackets.
Test: qHTS Assay for Lipid Storage Modulators in Drosophila S3 Cells;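 on cell number change: cells counted by Cell Tracker Red CMTPX staining in the red channel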
Details: BODIPY lipid droplet fluorescence, 18-24 h; for cell number change: measured here: cell count max response, cells fed with added oleic acid
Outline: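 Laser-scanning cytometry quantifies lipid droplet accumulation (500–530 nm total intensity; droplet/cell object ratio) in oleic acid-fed (400 uM added) Drosophila S3 cells treated with a concentration series. 20 uM Triacsin C defined 100% inhibition.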

[1] = measured here: lipid fluorescence (Fed channel) AC50, cells fed with added oleic acid
[2] = measured here: cell number channel AC50, cells fed with added oleic acid

Row | Structure (SMILES) | cell number change [%] | AC50 [1] | AC50 [2]
1 | COCCCn1cnc2c(c1=O)c1nc3ccccc3nc1n2-c1ccccc1 | -14.5 | 0.58 µM [rising, partial curve] | –
2 | Oc1ccc(/C=N/n2c(-c3ccccc3)n[nH]c2=S)cc1Br | -23 | – | –
3 | CCCOc1ccc(-c2nc(OC)c3ccccc3n2)cc1 | 8.77 | 5.17 µM [rising, partial curve] | –
4 | O=C(Nc1ccc(Oc2ccccc2)cc1)c1cnc2n(c1=O)CCS2 | 14.4 | 0.58 µM [rising, single point] | –
5 | CCOC(=O)C1CCN(c2cc3c(cc2NC(=O)c2ccc(OC)c(OC)c2)n(C)c(=O)n3C)CC1 | -24.5 | – | –
6 | COC(=O)C1=C(C)N(CC2CC2)C(=NCc2cccc(Cl)c2)N[C@H]1c1ccccc1 | 6.77 | 6.51 µM [falling, single point] | –
7 | O=C1Nc2ccccc2N(O)N1c1ccc(Cl)cc1 | 0.0279 | 0.058 µM [falling, full curve, poor fit] | –
8 | O=C(CN1CCN(c2ncccn2)CC1)N1CCCc2c1c(=O)oc1ccc(O)cc21 | -24.4 | 14.6 µM [falling, partial curve, poor fit] | –
9 | O=C(O)c1cccc(Nc2ncnc3ccccc23)c1 | – | 23.1 µM [falling, partial curve] | –
10 | CCN(CC)C(=O)CSc1nnc(CCNC(=O)OC(C)(C)C)o1 | – | – | 0.58 µM [rising, single point]
11 | COc1cccc(C(=O)NN2CC(O)=C(c3nc(C)cs3)C2=N)c1 | 17.2 | 6.51 µM [rising, full curve, poor fit] | –
12 | COc1ccc(CNC(=O)CCCCCn2c(SCC#N)nc3cc4c(cc3c2=O)OCO4)cc1 | -157 | 0.58 µM [rising, single point] | –
13 | CC(=O)Nc1ccc(C(=O)NNC(=O)c2ccccc2-n2cccc2)cc1 | 3.41 | 14.6 µM [falling, single point] | –
14 | COC(=O)C1=C(C(=O)OC)SC(=C2C(=S)C(C)(C)N(C(=O)C3CC3)c3ccccc32)S1 | -96.5 | – | 23.1 µM [falling, partial curve, poor fit]
15 | Cc1ccc(/C=C2\SC(=S)N(CCCC(=O)Nc3ccccc3C(=O)O)C2=O)cc1 | – | 1.3 µM [rising, full curve] | –
16 | CCCCCCCN1C(Nc2ccccc2)=NC[C@@H]1Cc1ccccc1 | -31.7 | – | 23.1 µM [falling, single point]
17 | CC(C)C[C@@]12C(=O)N(c3cccc(Br)c3)C(=O)N1[C@H](c1ccc(F)cc1)[C@@H]1C(=O)N(C3CCCCC3)C(=O)[C@@H]12 | 6.07 | – | 6.51 µM [falling, single point]
18 | COc1ccc(C)c2sc(N(CCN(C)C)C(=O)/C=C/c3cccs3)nc12 | -11.5 | – | 3.26 µM [rising, single point]
19 | CCOc1cnn(Cc2ccccc2)c(=O)c1SCc1ccccc1 | 75.7 | 23.1 µM [rising, single point] | 29.1 µM [rising, single point]
20 | COc1ccc(N(C(=O)c2ccc(S(=O)(=O)N3CCOCC3)cc2)C2C=CS(=O)(=O)C2)cc1 (stereo not given) | 1.78 | 1.03 µM [falling, full curve, poor fit] | –

Taken from above.
cell number change [%], O=C(Nc1ccc(Oc2ccccc2)cc1)c1cnc2n(c1=O)CCS2 is entered as 14.4
AC50 [2], CCN(CC)C(=O)CSc1nnc(CCNC(=O)OC(C)(C)C)o1 is entered as 0.58 µM [rising, single point]
cell number change [%], COc1ccc(C)c2sc(N(CCN(C)C)C(=O)/C=C/c3cccs3)nc12 is entered as -11.5

(listing goes on)

Row | Structure (SMILES) | cell number change [%] | AC50 [1] | AC50 [2]
21 | OCCC1CN(Cc2cccn2-c2ncccn2)CCN1Cc1ccccc1 (stereo not given) | -7.33 | – | –
22 | COc1ccccc1C(=O)Nc1ccccc1C(=O)N1CCCC1 | 37.8 | 6.51 µM [falling, single point] | 3.66 µM [rising, single point]
23 | O=C1c2ccccc2C(=O)N1CCCP(=O)(O)CCc1ccccc1 | -6.15 | 0.366 µM [falling, partial curve] | –
24 | COc1cccc(OCc2nnc3n2N=C(c2ccccc2)C(CC(=O)O)S3)c1 (stereo not given) | 25 | 6.51 µM [falling, single point] | –
25 | O=C1NC(=O)C(=O)N1 | -23.7 | 0.13 µM [falling, full curve, poor fit] | 0.13 µM [falling, full curve, poor fit]
26 | CCn1c(SCc2ccc(OC)c(F)c2)nc2ccccc2c1=O | -19 | – | –
27 | CC(=O)N1[C@H](C)C=C[C@]1(Cc1ccccc1)C(=O)NCc1cc(F)cc(C(F)(F)F)c1 | 12.3 | – | 0.326 µM [rising, partial curve, poor fit]
28 | NC(=O)c1cc(Cl)ccc1OCC(=O)N1CCCc2ccccc21 | 8.56 | 0.116 µM [rising, full curve, poor fit] | –
29 | N#Cc1ccc(COC(=O)CC(NC(N)=O)c2ccc(Cl)cc2)cc1 (stereo not given) | 12.8 | – | 3.66 µM [rising, single point]
30 | c1coc(CNc2c3c(nc4ncnn24)CCC3)c1 | 6.14 | – | 6.51 µM [rising, single point]
31 | Cc1cc(C)n(C(=O)CN2C(=O)c3ccccc3C2=O)n1 | – | 0.517 µM [rising, partial curve] | 0.259 µM [rising, partial curve]
32 | COc1cccc(-c2cc(C(=O)Nc3ccccc3SC)no2)c1 | 17.5 | – | –
33 | COc1ccc(Nc2nc(N)c([N+](=O)[O-])c(NC3CCCCC3)n2)cc1 | -47.8 | 32.6 µM [falling, single point] | 29.1 µM [falling, single point]
34 | O=C(NC(=S)Nc1ccc(C(F)(F)F)cc1)c1csnn1 | -17 | – | –
35 | Cc1ccc(-c2csc(NC(=O)/C=C/c3cccs3)n2)cc1C | -18.1 | 20.6 µM [falling, single point] | –
36 | Cc1cccc(-c2n[nH]c(=S)n2/N=C/c2ccco2)c1 | -9.15 | 0.184 µM [falling, full curve, poor fit] | –
37 | CC(=O)Nc1ccc(NC(=O)CCn2c(=O)oc3ccccc32)cc1 | 8.97 | 11.6 µM [rising, partial curve] | –
38 | Clc1nnc(N/N=C/c2ccccc2)c2ccccc12 | – | – | 5.8 µM [rising, single point]
39 | O=S(=O)(c1ccccc1)N1CCC(Oc2ccc(-n3cnnn3)cc2)CC1 | 21.5 | – | –
40 | O=C(CSc1nc2ccccc2o1)N/N=C/c1ccco1 | 13 | 0.58 µM [rising, single point] | –

Row | Structure (SMILES) | cell number change [%] | AC50 [1] | AC50 [2]
41 | O=C1NC(Cc2c[nH]c3ccccc23)C(=O)N1CCOc1ccc(F)cc1 (stereo not given) | – | 6.51 µM [rising, single point] | 6.51 µM [rising, single point]
42 | CC1CC(C)CN(c2ncc3c(n2)CC(c2ccccc2)CC3=O)C1 (stereo not given) | -0.881 | 2.31 µM [falling, partial curve, poor fit] | 3.26 µM [falling, partial curve]
43 | Cc1c(Cl)ccc2sc(NC(=O)C3CC3)nc12 | 6.34 | 29.1 µM [rising, single point] | –
44 | c1ccc(Nc2ccccn2)nc1 | -4.76 | 0.731 µM [falling, full curve, poor fit] | –
45 | CC(C)CC(=O)N1CCC(O)(CS(=O)(=O)Cc2ccccc2)CC1 | 24.7 | 3.66 µM [falling, single point] | –
46 | C=C1N(C)c2cc([N+](=O)[O-])c(N)cc2C1(C)C | 65.7 | 29.1 µM [rising, partial curve, poor fit] | –
47 | CN(CCOc1ccccc1)CC(O)COc1ccccc1 (stereo not given) | 24.8 | – | 0.411 µM [rising, full curve, poor fit]
48 | Cc1cccc(NC(=O)c2ccc(Cl)c(NC(=O)c3ccncc3)c2)c1C | 8.24 | 0.00517 µM [rising, full curve, poor fit] | –
49 | Cn1c(-c2cccc(Br)c2)cnc1NCc1cccnc1 | – | – | 0.58 µM [rising, single point]
50 | COC(=O)Cc1[nH]nc2c1C(C1C=CCCC1)C(C#N)=C(N)O2 (stereo not given) | 77.7 | – | 1.84 µM [rising, full curve, poor fit]
51 | CC(=O)NC(=O)c1cnn(-c2ccccc2)c1N | -9.85 | 25.9 µM [falling, single point] | –
52 | COc1ccc(CNC(=O)C(c2ccco2)N(C(=O)CNS(=O)(=O)c2ccccc2)c2ccccc2C)cc1 (stereo not given) | 18 | 8.2 µM [rising, partial curve] | –
53 | COc1ccc(C(=O)Nc2ccc(/C(C)=N/NC(=O)c3ccccc3O)cc2)cc1OC | 114 | 6.51 µM [falling, partial curve] | 6.51 µM [falling, partial curve]
54 | C=CCOC(=O)/C(=C/c1ccco1)NC(=O)/C=C/c1ccccc1 | 178 | 5.8 µM [rising, full curve] | 8.2 µM [rising, partial curve]
55 | Cc1ccc(NC(=O)COC(=O)CN2C(=O)NC3(CCCC3)C2=O)cc1F | 0.493 | 0.164 µM [rising, partial curve, poor fit] | –
56 | Cc1ccc(S(=O)(=O)c2nc(-c3ccco3)oc2SC(C)C)cc1 | 1.21 | 32.6 µM [rising, single point] | –
57 | COC(=O)COc1cccc(NS(=O)(=O)c2ccc(NC(C)=O)cc2)c1 | -69.1 | 16.4 µM [falling, partial curve] | 18.4 µM [falling, partial curve]
58 | CCCCCN1C(=O)Cn2c(nc3ccccc3c2=O)C1C (stereo not given) | 81.2 | – | –
59 | O=C(CSc1nc(=O)[nH]c2c1CCCC2)Nc1ccc(F)cc1F | -16.6 | 29.1 µM [falling, single point] | –
60 | CC1(C)Cc2c(c(-c3ccccc3)[nH]c(=O)c2C#N)CS1 | -0.86 | 29.1 µM [falling, single point] | –
